The target in experiment [1] is P. falciparum protein phosphatase type-1 (PfPP1) recombinant protein, coupled to Sepharose (Plasmodium falciparum) (UniProt Q8ILV1). Put plainly: affinity purification with mass spectrometry; PfPP1 (or BSA as control) covalently coupled to Sepharose beads; precleared total soluble extract of blood stage parasites, overnight at 4 °C; 5 washes with 50 mM Tris, 0.3 M NaCl; elution with 3 M NaSCN; SDS-PAGE, stained bands cut for MS/MS; only the target purified.

Chains of the proteins cited; added tags and fusions are not shown. Residues count along the entry.
UniProt Q8ILV1: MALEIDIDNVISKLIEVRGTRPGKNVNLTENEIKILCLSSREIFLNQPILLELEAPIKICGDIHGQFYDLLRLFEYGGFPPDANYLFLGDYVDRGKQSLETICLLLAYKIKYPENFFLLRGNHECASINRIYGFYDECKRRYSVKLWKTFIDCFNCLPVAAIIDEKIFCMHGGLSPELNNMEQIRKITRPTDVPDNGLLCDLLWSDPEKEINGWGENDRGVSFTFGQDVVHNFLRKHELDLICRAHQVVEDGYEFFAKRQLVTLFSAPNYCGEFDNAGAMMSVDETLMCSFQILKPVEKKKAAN
UniProt P02769, residues 25-607: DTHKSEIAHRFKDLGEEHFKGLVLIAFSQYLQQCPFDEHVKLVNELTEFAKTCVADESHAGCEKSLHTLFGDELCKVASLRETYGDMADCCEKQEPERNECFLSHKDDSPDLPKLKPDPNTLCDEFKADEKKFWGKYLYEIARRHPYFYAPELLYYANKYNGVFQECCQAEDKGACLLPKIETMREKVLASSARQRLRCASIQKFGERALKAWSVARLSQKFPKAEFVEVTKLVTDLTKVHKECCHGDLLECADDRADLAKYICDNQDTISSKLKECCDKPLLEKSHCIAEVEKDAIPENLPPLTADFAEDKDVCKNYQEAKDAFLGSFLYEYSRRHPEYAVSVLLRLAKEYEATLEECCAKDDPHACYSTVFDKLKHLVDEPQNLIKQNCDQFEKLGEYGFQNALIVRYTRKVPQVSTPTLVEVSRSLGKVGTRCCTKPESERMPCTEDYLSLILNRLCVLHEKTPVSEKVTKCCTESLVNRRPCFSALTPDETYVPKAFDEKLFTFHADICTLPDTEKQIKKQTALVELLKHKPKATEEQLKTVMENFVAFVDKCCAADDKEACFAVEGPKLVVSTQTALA

Experiment [2] deals with BSA (bovine (from the name BSA)) (UniProt P02769). The experiment is described as above.

Results are given in words; binding and its absence hold for the method and conditions named. In cells and extracts the contact can be indirect. A yes stands for co-enrichment or nearness to the bait. Other partners may have been found. For some of these results: No binding means not detected with the bait.

B1: ornithine aminotransferase (OAT) (protein, UniProt Q6LFH8 1-414)
chain: MDFVKELKSSQDYMNNELTYGAHNYDPIPVVLKRGKGVFVYDIEDRRYYDFLSAYSSVNQGHCHPDILNAMINQAKKLTICSRAFFSDSLGVCERYLTNLFGYDKVLMMNTGAEASETAYKLCRKWGYEVKKIPENSAKIIVCNNNFSGRTLGCVSASTDKKCKNNFGPFVPNFLKVPYDDLEALEKELQDPNVCAFIVEPVQGEAGVIVPSDSYFPGVASLCKKYNVLFVADEVQTGLGRTGKLLCTHHYGVKPDVILLGKALSGGHYPISAILANDDVMLVLKPGEHGSTYGGNPLAAAICVEALKVLINEKLCENADKLGAPFLQNLKEQLKDSKVVREVRGKGLLCAIEFKNDLVNVWDICLKFKENGLITRSVHDKTVRLTPPLCITKEQLDECTEIIVKTVKFFDDNL
On to B1, for which the binding entry in experiment [1] is reported as “binds”; in experiment [2], “no binding”.

B2: phosphoethanolamine N-methyltransferase (PMT) (protein, UniProt Q8IDQ9 1-266)
chain: MTLIENLNSDKTFLENNQYTDEGVKVYEFIFGENYISSGGLEATKKILSDIELNENSKVLDIGSGLGGGCMYINEKYGAHTHGIDICSNIVNMANERVSGNNKIIFEANDILTKEFPENNFDLIYSRDAILHLSLENKNKLFQKCYKWLKPTGTLLITDYCATEKENWDDEFKEYVKQRKYTLITVEEYADILTACNFKNVVSKDLSDYWNQLLEVEHKYLHENKEEFLKLFSEKKFISLDDGWSRKIKDSKRKMQRWGYFKATKN
For B2, the binding entry in experiment [1] is recorded as “binds”; in experiment [2], “no binding”.

The values are drawn from publication PMC4794898.
